Assay results published in article PMC10989989, “The archaeal KEOPS complex possesses a functional Gon7 homolog and has an essential function independent of the cellular t^6A modification level” (mLife, 2023).
For at least one entry, the source does not settle the construct or the ends of the probe. For some assays here: Negatives hold for the conditions tested. For some assays here: A weaker result is weaker than the reference pair of the same experiment. For some assays here: At least one verdict was read from the data and is not stated in words by the source.

Experiments:
Assay in all cases: EMSA
SisSSB = conditions: 5 uM, positive control; 50 mM Tris-HCl pH 8.0, 100 uM ATP, 37 C 30 min (45 min for the 45 nt ssDNA); 10 nM FAM probe (1 nM in Fig 6B); 8% native PAGE in 0.5x TBE at 4 C; recombinant protein; label: 5'-FAM; single-stranded DNA
[1] = tested on: MBP-His-SisCgi121 (Saccharolobus islandicus REY15A); conditions: binding only at 20 uM, likely nonspecific, 50 mM Tris-HCl pH 8.0, 100 uM ATP, 37 C 30 min (45 min for the 45 nt ssDNA), 10 nM FAM probe (1 nM in Fig 6B), 8% native PAGE in 0.5x TBE at 4 C, recombinant protein, protein details: MBP, 6xHis, label: 5'-FAM
[2] = tested on: TkoCgi121 (Thermococcus kodakarensis); conditions: 10 nM DNA, up to 20 uM protein, 50 mM Tris-HCl pH 8.0, 100 uM ATP, 37 C 30 min (45 min for the 45 nt ssDNA), 10 nM FAM probe (1 nM in Fig 6B), 8% native PAGE in 0.5x TBE at 4 C, recombinant protein, protein details: 6xHis, label: 5'-FAM

CAGTATGCTGCGTGAGGAATGATCCCATGACGTAACCACAGTGCC [FAM-ssDNA 45 nt with two CCA motifs]
binding result (SisSSB): binds
binding result ([1]; single-stranded DNA): binds more weakly
binding result ([2]; single-stranded DNA): no binding

CAGTATGCTGCGTGAGGAATGATCCCATGACGTAACCACAGTGCC (double strand) [FAM-dsDNA 45 bp with two CCA motifs]
binding result [1]: binds more weakly
binding result [2]: no binding
